Measurements reported in PubChem BioAssay AID1259308 (NCATS, 2017).
The whole screen tested about 59,000 reagents; this is a part drawn at random. About 1,510 of all reagents (2.6%) were called active. 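Calls use total luciferase alone and ignore viability, so some active siRNAs may act by altering cell number.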 The numbers tell different reagents against one gene apart. Further read-outs or replicates are left out here.

Aim: 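Candidate targets for better recombinant protein yield in mammalian cells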 (primary screen)
Cells: human HEK293 embryonic kidney cells stably expressing firefly luciferase (HEK-CMV-Luc2-Hygro)
Reagents: single siRNA against human genes, 0.8 pmol siRNA per well
Time to read-out: 72 h
Measured: 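Reporter luminescence and viable-cell signal on separate replicate plates, given as percent of non-targeting control and median/MAD z-scores, plus per-cell luciferase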
Direction: total luciferase, z-score and total luciferase, % of control: higher = more reporter protein produced
Hit rule: 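An siRNA counts as active if its total luciferase robust z-score exceeds 3; genes with two or more such siRNAs out of three were retested with fresh siRNAs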
Meaning of the calls: active = raised luciferase; inactive = no rise

target	reagent no.	total luciferase, z-score	total luciferase, % of control	call
FBXO34 (F-box protein 34)	1	-1.69	48.3	inactive
FBXO34 (F-box protein 34)	2	0.223	86.3	inactive
FBXO34 (F-box protein 34)	3	-0.4	73.9	inactive
BMS1P12 (BMS1 pseudogene 12)	1	0.0289	82.5	inactive
BMS1P12 (BMS1 pseudogene 12)	2	0.528	92.4	inactive
BMS1P12 (BMS1 pseudogene 12)	3	1.77	117	inactive
SLC39A13	1	-0.491	72.1	inactive
SLC39A13	2	-1.27	56.7	inactive
SLC39A13	3	0.288	87.6	inactive
WDR75 (WD repeat domain 75)	1	-0.364	74.6	inactive
WDR75 (WD repeat domain 75)	2	-0.956	62.9	inactive
WDR75 (WD repeat domain 75)	3	-1.38	54.5	inactive
DNAI2 (dynein axonemal intermediate chain 2)	1	-0.838	65.2	inactive
DNAI2 (dynein axonemal intermediate chain 2)	2	-0.295	76	inactive
DNAI2 (dynein axonemal intermediate chain 2)	3	-0.932	63.4	inactive

Quoted from above, 3 entries:
target	reagent no.	total luciferase, z-score	total luciferase, % of control	call
SLC39A13	3	0.288	87.6	inactive
WDR75 (WD repeat domain 75)	1	-0.364	74.6	inactive
WDR75 (WD repeat domain 75)	2	-0.956	62.9	inactive

Additional reagents follow.
target	reagent no.	total luciferase, z-score	total luciferase, % of control	call
IL17RE (interleukin 17 receptor E)	1	0.312	88.1	inactive
IL17RE (interleukin 17 receptor E)	2	1.39	110	inactive
IL17RE (interleukin 17 receptor E)	3	-0.757	66.8	inactive
CYP3A7 (cytochrome P450 family 3 subfamily A member 7)	1	2.28	127	inactive
CYP3A7 (cytochrome P450 family 3 subfamily A member 7)	2	-1.25	57	inactive
CYP3A7 (cytochrome P450 family 3 subfamily A member 7)	3	-0.516	71.6	inactive
SBK2 (SH3 domain binding kinase family member 2)	1	2.61	134	inactive
SBK2 (SH3 domain binding kinase family member 2)	2	0.611	94	inactive
SBK2 (SH3 domain binding kinase family member 2)	3	-0.732	67.3	inactive
NODAL (nodal growth differentiation factor)	1	-0.04	81.1	inactive
NODAL (nodal growth differentiation factor)	2	-0.0562	80.8	inactive
NODAL (nodal growth differentiation factor)	3	-1.57	50.7	inactive
MAPK11 (mitogen-activated protein kinase 11)	1	-0.263	76.7	inactive
MAPK11 (mitogen-activated protein kinase 11)	2	3.17	145	active
MAPK11 (mitogen-activated protein kinase 11)	3	0.502	91.9	inactive
PTPN20 (protein tyrosine phosphatase non-receptor type 20)	1	-0.385	74.2	inactive
PTPN20 (protein tyrosine phosphatase non-receptor type 20)	2	-0.178	78.3	inactive
PTPN20 (protein tyrosine phosphatase non-receptor type 20)	3	-0.341	75.1	inactive
PTPN20 (protein tyrosine phosphatase non-receptor type 20)	4	0.211	86.1	inactive
PTPN20 (protein tyrosine phosphatase non-receptor type 20)	5	0.514	92.1	inactive
PTPN20 (protein tyrosine phosphatase non-receptor type 20)	6	-0.311	75.7	inactive
ZACN (zinc activated ion channel)	1	-0.74	67.2	inactive
ZACN (zinc activated ion channel)	2	-1.39	54.3	inactive
ZACN (zinc activated ion channel)	3	-1.08	60.5	inactive
